The record followed here is article PMC11497106, “GJB2 Promotes HCC Progression by Activating Glycolysis Through Cytoplasmic Translocation and Generating a Suppressive Tumor Microenvironment Based on Single Cell RNA Sequencing” (Advanced Science, 2024).

Chains of the proteins cited; added tags and fusions are not shown.
UniProt P25963: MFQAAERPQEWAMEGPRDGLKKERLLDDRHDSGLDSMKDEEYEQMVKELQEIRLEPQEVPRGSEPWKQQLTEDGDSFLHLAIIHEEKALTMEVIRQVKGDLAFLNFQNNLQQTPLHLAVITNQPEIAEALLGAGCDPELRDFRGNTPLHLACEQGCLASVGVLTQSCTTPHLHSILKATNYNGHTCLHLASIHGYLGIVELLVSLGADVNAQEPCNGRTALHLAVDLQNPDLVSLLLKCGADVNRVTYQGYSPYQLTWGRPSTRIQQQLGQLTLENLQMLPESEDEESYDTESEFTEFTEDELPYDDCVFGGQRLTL

The test deals with IκBα (human (endogenous in HCC cell lines)) (UniProt P25963). In words: co-IP; lysates of HCC cell lines; 5 µg monoclonal antibody against the target protein in 500 µL lysate overnight at 4 °C, then Protein A and Protein G; western blot. IκBα-ASB2 tested 'after transfection'. GJB2-ASB2 also tested after treating cells with DMSO or Salvianolic acid B (binding weakened by Sal B). Background: A western blot detects proteins with antibodies after separation by electrophoresis.

No constants are given. Whether binding was seen depends on the method and setting. Binding seen in cells or lysates may run through a third protein. Some entries that bind do so weakly or less than the wild type.

B1: ankyrin repeats and SOCS box containing 2 (ASB2) (protein, UniProt Q96Q27 1-635)
chain: MATQISTRGSQCTIGQEEYSLYSSLSEDELVQMAIEQSLADKTRGPTTAEATASACTNRQPAHFYPWTRSTAPPESSPARAPMGLFQGVMQKYSSSLFKTSQLAPADPLIKAIKDGDEEALKTMIKEGKNLAEPNKEGWLPLHEAAYYGQVGCLKVLQRAYPGTIDQRTLQEETAVYLATCRGHLDCLLSLLQAGAEPDISNKSRETPLYKACERKNAEAVKILVQHNADTNHRCNRGWTALHESVSRNDLEVMQILVSGGAKVESKNAYGITPLFVAAQSGQLEALRFLAKYGADINTQASDNASALYEACKNEHEEVVEFLLSQGADANKTNKDGLLPLHIASKKGNYRIVQMLLPVTSRTRIRRSGVSPLHLAAERNHDEVLEALLSARFDVNTPLAPERARLYEDRRSSALYFAVVNNNVYATELLLQHGADPNRDVISPLLVAIRHGCLRTMQLLLDHGANIDAYIATHPTAFPATIMFAMKCLSLLKFLMDLGCDGEPCFSCLYGNGPHPPAPQPSSRFNDAPAADKEPSVVQFCEFVSAPEVSRWAGPIIDVLLDYVGNVQLCSRLKEHIDSFEDWAVIKEKAEPPRPLAHLCRLRVRKAIGKYRIKLLDTLPLPGRLIRYLKYENTQ
B1: the binding entry is listed as “binds”.
